Values of other authors as cited in patent US4590193A, “3-(2-(4-phenylpiperazinylethyl)anilino)-isobenzofuranones, their method of preparation and their use as antihypertensive and antiallergic drugs” (Societe Cortial, S.A., priority 1982, dated 1986).
Values after ≈ are worked out from the molar mass of the structure shown. At least one structure is not confirmed: it was looked up by name or label, or the drawing left a doubt.

What was measured:
[1] = system: histamine-induced contractions on isolated guinea pig ileum; conditions: histamine 10^-8 g/liter, after rinsing away the histamine; range 4.14-9.58; cited from earlier work
[2] = system: passive cutaneous anaphylaxis; conditions: p.o. in "Tween 80", 10 min before allergenic injection; range 3.39-7.76; cited from earlier work

Nc1ccccc1CCN1CCN(c2ccccc2)CC1 [product of Example 1, 2-(4-phenylpiperazinylethyl)aniline]
CI50 [1]: 6.3 mg/L (≈ 22.4 µM)
DE50 [2]: 5.11 mg/kg
